Assay results as given in publication PMC8384837.
Positions count from the first letter of the chain named. The list shows a part of the results. For some of these results: At the low end of the ranking the order means little.

Key:
Conditions in all cases: yeast three-hybrid, YBZ-1, SC-Leu-His + 0.5 mM 3-AT, 4 days
[1] = molecular target: T1, PUM1 PUF domain R6-SWE N1043S + Y1044W + Q1047E (UniProt Q14671)
T1 sequence: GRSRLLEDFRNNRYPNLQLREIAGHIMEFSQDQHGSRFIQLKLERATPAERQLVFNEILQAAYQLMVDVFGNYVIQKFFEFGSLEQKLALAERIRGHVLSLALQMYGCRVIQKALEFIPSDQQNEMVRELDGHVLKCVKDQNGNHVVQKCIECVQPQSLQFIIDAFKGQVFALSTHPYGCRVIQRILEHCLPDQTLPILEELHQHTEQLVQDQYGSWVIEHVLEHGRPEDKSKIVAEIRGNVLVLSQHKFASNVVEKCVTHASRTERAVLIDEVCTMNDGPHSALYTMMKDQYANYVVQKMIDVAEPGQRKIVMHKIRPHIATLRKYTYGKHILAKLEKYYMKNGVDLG

[2] = molecular target: T2, PUM1 PUF domain R6-SWG N1043S + Y1044W + Q1047G (UniProt Q14671)
T2 sequence: T1 sequence with E220G

[3] = molecular target: T3, PUM1 PUF domain R6-SWS N1043S + Y1044W + Q1047S (Homo sapiens) (UniProt Q14671)
T3 sequence: T1 sequence with E220S

[4] = molecular target: T4, PUM1 PUF domain R6-SWV N1043S + Y1044W + Q1047V (UniProt Q14671)
T4 sequence: T1 sequence with E220V

[5] = molecular target: T5, PUM1 PUF domain R6-SYA N1043S + Q1047A (UniProt Q14671)
T5 sequence: T1 sequence with W217Y, E220A

[6] = molecular target: T6, PUM1 PUF domain R6-TFR N1043T + Y1044F + Q1047R (Homo sapiens) (UniProt Q14671)
T6 sequence: T1 sequence with S216T, W217F, E220R

[7] = molecular target: T7, PUM1 PUF domain R6-THR N1043T + Y1044H + Q1047R (UniProt Q14671)
T7 sequence: T1 sequence with S216T, W217H, E220R

[8] = molecular target: T8, PUM1 PUF domain R6-TWG N1043T + Y1044W + Q1047G (UniProt Q14671)
T8 sequence: T1 sequence with S216T, E220G

[9] = molecular target: T9, PUM1 PUF domain R6-TWL N1043T + Y1044W + Q1047L (UniProt Q14671)
T9 sequence: T1 sequence with S216T, E220L

[10] = molecular target: T10, PUM1 PUF domain R6-VFA N1043V + Y1044F + Q1047A (UniProt Q14671)
T10 sequence: T1 sequence with S216V, W217F, E220A

[11] = molecular target: T11, PUM1 PUF domain R6-VFG N1043V + Y1044F + Q1047G (UniProt Q14671)
T11 sequence: T1 sequence with S216V, W217F, E220G

[12] = molecular target: T12, PUM1 PUF domain R6-VFH N1043V + Y1044F + Q1047H (UniProt Q14671)
T12 sequence: T1 sequence with S216V, W217F, E220H

[13] = molecular target: T13, PUM1 PUF domain R6-VFL N1043V + Y1044F + Q1047L (UniProt Q14671)
T13 sequence: T1 sequence with S216V, W217F, E220L

[14] = molecular target: T14, PUM1 PUF domain R6-VFQ N1043V + Y1044F (UniProt Q14671)
T14 sequence: T1 sequence with S216V, W217F, E220Q

[15] = molecular target: T15, PUM1 PUF domain R6-VWA N1043V + Y1044W + Q1047A (UniProt Q14671)
T15 sequence: T1 sequence with S216V, E220A

[16] = molecular target: T16, PUM1 PUF domain R6-VWH N1043V + Y1044W + Q1047H (UniProt Q14671)
T16 sequence: T1 sequence with S216V, E220H

[17] = molecular target: T17, PUM1 PUF domain R6-VWL N1043V + Y1044W + Q1047L (Homo sapiens) (UniProt Q14671)
T17 sequence: T1 sequence with S216V, E220L

[18] = molecular target: T18, PUM1 PUF domain R6-VWS N1043V + Y1044W + Q1047S (UniProt Q14671)
T18 sequence: T1 sequence with S216V, E220S

[19] = molecular target: T19, PUM1 PUF domain R6-TFA N1043T + Y1044F + Q1047A (Homo sapiens) (UniProt Q14671)
T19 sequence: T1 sequence with S216T, W217F, E220A

[20] = molecular target: T20, PUM1 PUF domain R6-TFS N1043T + Y1044F + Q1047S (Homo sapiens) (UniProt Q14671)
T20 sequence: T1 sequence with S216T, W217F, E220S

Row | Sequence | binding signal (log2 enrichment (interaction score)) [1] | binding signal (log2 enrichment (interaction score)) [2] | binding signal (log2 enrichment (interaction score)) [3] | binding signal (log2 enrichment (interaction score)) [4] | binding signal (log2 enrichment (interaction score)) [5] | binding signal (log2 enrichment (interaction score)) [6] | binding signal (log2 enrichment (interaction score)) [7] | binding signal (log2 enrichment (interaction score)) [8] | binding signal (log2 enrichment (interaction score)) [9] | binding signal (log2 enrichment (interaction score)) [10] | binding signal (log2 enrichment (interaction score)) [11] | binding signal (log2 enrichment (interaction score)) [12] | binding signal (log2 enrichment (interaction score)) [13] | binding signal (log2 enrichment (interaction score)) [14] | binding signal (log2 enrichment (interaction score)) [15] | binding signal (log2 enrichment (interaction score)) [16] | binding signal (log2 enrichment (interaction score)) [17] | binding signal (log2 enrichment (interaction score)) [18] | binding signal (log2 enrichment (interaction score)) [19] | binding signal (log2 enrichment (interaction score)) [20]
1 | GGCUAGAACUAGUGGAUCCCCCGGCGCCCGGCGGCUCGAGCCCGGGUAAGUGUAAAUAGUCUGCAUGCCGCCGGGCGCCAUGCCUGCAGGUCGACUCUAGAAAACAUG | -5.19 |  |  |  |  |  |  |  |  |  |  |  |  |  |  |  |  |  |  | 
2 | GGCUAGAACUAGUGGAUCCCCCGGCGCCCGGCGGCUCGAGCCCGGGUAAGUGGAAAUAGUCUGCAUGCCGCCGGGCGCCAUGCCUGCAGGUCGACUCUAGAAAACAUG |  | -6.48 | -1.05 | -7.18 | < -7.43 | -5.13 | < -7.73 | < -8.2 | < -7.9 | -5.74 | -6.47 | -5.8 | < -8.42 | -6.16 | < -8.77 | < -6.88 | -0.25 | < -9.9 |  | 
3 | GGCUAGAACUAGUGGAUCCCCCGGCGCCCGGCGGCUCGAGCCCGGGUAAGUGAAAAUAGUCUGCAUGCCGCCGGGCGCCAUGCCUGCAGGUCGACUCUAGAAAACAUG |  |  |  |  |  | 0.26 | < -8.17 |  |  |  |  |  |  |  |  |  |  |  | 1.23 | -2.5
4 | GGCUAGAACUAGUGGAUCCCCCGGCGCCCGGCGGCUCGAGCCCGGGUAAGUGCAAAUAGUCUGCAUGCCGCCGGGCGCCAUGCCUGCAGGUCGACUCUAGAAAACAUG | -4.28 | -6.34 | -4.63 | < -7.39 | < -7.17 |  |  | < -7.52 | < -7.9 | < -8.05 | < -8.09 | -4.64 | < -8.02 | -4.9 | < -8.56 | < -6.5 | -4.81 | < -7.88 | -1.25 | -4.14
